Results are given in words; binding and its absence hold for the method and conditions named. Binding calls can cover weak binding; strength is not graded here.

Among the data in paper PMC13376213, “Systematic discovery of motif-based interactions of the auxiliary domains of USP family deubiquitinases” (Nature Communications, 2026) are binding values, retold here.

The test has as its target USP20 DUSP2 domain, tag cleaved (for FP) (human). As to the kind of experiment: fluorescence polarisation; displacement: unlabeled peptide titrated into the domain (at two-fold the KD of the FITC-labeled peptide) with 10 nM FITC-labeled peptide; 50 mM phosphate buffer pH 7.4, DTT, room temperature; estimated KD; both purified.

B1: HIF2A peptide 531-548 (peptide)
peptide: PYIPMDGEDFQLSPICPE
modifications: N-terminally acetylated, C-terminally amidated
Consider B1, for which the binding entry is recorded as “binds weakly”.
